Negatives hold for the conditions tested. At least one verdict rests on a figure or table, not on a statement of the authors. Tags and fusion partners may be left off the protein sequences shown.
Key:
[1] = molecular target: T1, GST-MAT1-2-1 (Penicillium chrysogenum PC3) (UniProt B1GVC0); experiment: EMSA; settings: 4 uM, without MAT1-1-1, lack of binding attributed to low protein amount (binds at 7 uM); EMSA: 20 ul reaction, 20 min at room temperature, native 4% polyacrylamide gel, 120 V 2-3 h; salt and pH not given (Ramsak et al. 2021 protocol); recombinant protein; residues 1-303; protein details: N-terminal GST; label: 32P (probe), unlabelled as competitor
T1 sequence (looked up): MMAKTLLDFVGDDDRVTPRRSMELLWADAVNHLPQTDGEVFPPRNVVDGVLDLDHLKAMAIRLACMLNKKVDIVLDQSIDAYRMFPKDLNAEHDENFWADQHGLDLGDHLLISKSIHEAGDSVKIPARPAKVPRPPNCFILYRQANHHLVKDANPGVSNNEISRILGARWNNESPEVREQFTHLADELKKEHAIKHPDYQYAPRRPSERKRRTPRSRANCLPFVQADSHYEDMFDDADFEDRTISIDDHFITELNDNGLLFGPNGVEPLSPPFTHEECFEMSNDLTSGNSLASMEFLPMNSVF

[2] = molecular target: T2, MAT1-2-1 (GST removed) (Penicillium chrysogenum PC3) (UniProt B1GVC0); experiment: EMSA; settings: 4 uM, without MAT1-1-1, lack of binding attributed to low protein amount; EMSA: 20 ul reaction, 20 min at room temperature, native 4% polyacrylamide gel, 120 V 2-3 h; salt and pH not given (Ramsak et al. 2021 protocol); recombinant protein; residues 1-303; label: 32P (probe), unlabelled as competitor
T2 sequence (looked up): T1 sequence (looked up)

“TCACGTGATCTCTATTGAGAACAATAGAA (double strand) [tom1-2]”: no binding [1]; no binding [2].

— article PMC10512297, “The Penicillium chrysogenum tom1 Gene a Major Target of Transcription Factor MAT1-1-1 Encodes a Nuclear Protein Involved in Sporulation”
